According to patent EP4620969A1, “PEPTIDE HAVING SKIN WHITENING ACTIVITY, AND USE THEREOF” (Caregen Co., Ltd., priority 2022, dated 2025):
Not every detail of the peptide structures is certain; ends, links or a residue may be inferred. Where no end group is shown, it is not given here.

Columns and labels:
HaCaT cells [1] = assay: Analysis of incorporation by phagocytosis of melanosomes (melanin content, absorbance at 490 nm); assay type: cell-based, Human; conditions: peptide 50 µM, 100 µM, 200 µM for 24 hours, then melanosomes 10 µg/mL for 48 hours, FIG. 1
PAR2 gene = assay: Expression analysis of PAR2 gene related to melanosome phagocytosis (PCR, trypsin-stimulated); assay type: cell-based, Human; conditions: HaCaT cells; peptide 10 µM, 50 µM, 100 µM, 200 µM for 24 hours, then 4 units of trypsin for 16 hours; compared to the control group; FIGS. 2a and 2b
HaCaT cells [2] = assay: Melanosome degradation analysis (melanin amount, absorbance at 490 nm); assay type: cell-based, Human; conditions: cells preloaded with melanosomes 10 µg/mL for 48 hours; peptide 10 µM, 50 µM, 100 µM, 200 µM with melanosome solution for 72 hours; FIG. 5
LC3-I/II protein = assay: Analysis of activation of autophagy flux (Western blotting), LC3-I/II; assay type: cell-based, human; conditions: HaCaT cells; peptide 50 µM, 100 µM, 200 µM for 3 hours; compared to the negative control (CON); FIGS. 6a to 6d
TLR3 gene = assay: Expression analysis of TLR3 gene related to melanosome phagocytosis (PCR, poly(I:C)-stimulated); assay type: cell-based, Human; conditions: HaCaT cells; peptide 10 µM, 50 µM, 100 µM, 200 µM, 30 µg/mL poly(I:C) after 30 minutes, 24 hours; compared to the control group; FIGS. 3a and 3b
p62 protein = assay: Analysis of activation of autophagy flux (Western blotting), p62; assay type: cell-based, human; conditions: HaCaT cells; peptide 50 µM, 100 µM, 200 µM for 3 hours; compared to the negative control (CON); FIGS. 6a to 6d
KGFR gene = assay: Expression analysis of KGFR gene related to melanosome phagocytosis (PCR); assay type: cell-based, Human; conditions: HaCaT cells; peptide 10 µM, 50 µM, 100 µM, 200 µM for 6 hours; compared to the control group; FIGS. 4a and 4b
Beclin-1 protein = assay: Analysis of activation of autophagy flux (Western blotting), Beclin-1; assay type: cell-based, human; conditions: HaCaT cells; peptide 50 µM, 100 µM, 200 µM for 3 hours; compared to the negative control (CON); FIGS. 6a to 6d

MLKML [SEQ ID NO: 1, MLKML (Met-Leu-Lys-Met-Leu)]
incorporation of melanosomes into HaCaT cells by the phagocytosis of melanosomes (HaCaT cells [1]): inhibited | mRNA level of the PAR2 gene (PAR2 gene): reduced | degradation of melanosomes in HaCaT cells (change in melanosome content) (HaCaT cells [2]): induces the degradation of melanosomes | amount of LC3-I/II protein (LC3-I/II protein): increased | mRNA level of the gene of TLR3 (TLR3 gene): reduced | amount of p62 protein (p62 protein): decreased | mRNA level of the gene of KGFR (KGFR gene): reduced | amount of Beclin-1 protein (Beclin-1 protein): increased
